# According to the supplement of paper PMC5407854, “Inhibitor of ppGalNAc-T3-mediated O-glycosylation blocks cancer cell invasiveness and lowers FGF23 levels” (eLife, 2017):
# This is one part of the list. Most values lie at the level of the controls, where differences are scatter.
# What was measured:
# ppGalNAc-T3 sensor = assay: T3 sensor activation Q score (MG/GFP ratio z-score vs DMSO controls) (SD units); higher = more sensor activation (inhibition of ppGalNAc-T3 glycosylation); conditions: HEK293 sensor cells; 10 µM; 6 h
# Method: (§1)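 Cells were treated with compound at 10 uM for 6 h, then MG/GFP ratio was read by flow cytometry (10,000 cells per well, duplicate wells). Q = (R - R_neg)/SD_neg relative to DMSO vehicle controls; the signal rises when the glycosyltransferase is inhibited.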
# ppGalNAc-T2 sensor = assay: T2 sensor activation Q score (MG/GFP ratio z-score vs DMSO controls) (SD units); higher = more sensor activation (inhibition of ppGalNAc-T2 glycosylation); conditions: HEK293 sensor cells; 10 µM; 6 h
# Method: as §1
SMILES,T3 sensor activation Q score (ppGalNAc-T3 sensor),T2 sensor activation Q score (ppGalNAc-T2 sensor)
CCCc1nc(-c2ccc(-c3ccc(F)cc3)cc2)no1,-0.795,-0.87
O=c1[nH]c(=O)c2c(-c3ccccc3)csc2[nH]1,-0.405,-0.575
O=[N+]([O-])c1cccnc1N1CCOCC1,0.375,-0.795
Cc1ccc(NC(=O)C2CCC(C)(C(=O)O)C2(C)C)cc1 (stereo not given),-1.5,-1.81
CCc1ccc(CN2CCC(O)CC2)cc1,0.27,0.06
COc1cc2c(cc1OC)CN(Cc1ccc(N(C)C)cc1)CC2,0.22,0.605
O=C1C(Nc2cccc(O)c2)=C(N2CCCCC2)C(=O)c2ccccc21,1.95,1.3
CC(=O)Nc1ccc(NC2=CC(=O)CC(C)(C)C2)cc1,-0.39,-0.635
COc1ccc(NC(=O)N2CCN(C)CC2)cc1,0.615,-1.16
O=S(=O)(Nc1cccc(Cl)c1Cl)c1ccc(F)cc1,-0.24,-0.335
COc1ccc(S(=O)(=O)Nc2ccc(N3CCOCC3)cc2)cc1,0.45,-0.975
COc1ccc(OC)c(CN2CCCN(C)CC2)c1,0.405,-0.955
Cc1ccc(S(=O)(=O)N2CCCCC2)cc1,1.35,-0.325
CC(C)(C)NS(=O)(=O)c1ccccc1,-0.605,0.64
O=C1CC(N2CCN(c3ccccn3)CC2)C(=O)N1c1ccc(Cl)cc1 (stereo not given),0.205,-1.16

# Individual results from above.
# O=S(=O)(Nc1cccc(Cl)c1Cl)c1ccc(F)cc1 – T3 sensor activation Q score (ppGalNAc-T3 sensor): -0.24
# COc1ccc(S(=O)(=O)Nc2ccc(N3CCOCC3)cc2)cc1 – T2 sensor activation Q score (ppGalNAc-T2 sensor): -0.975
